Measured data: PubChem BioAssay AID1224828 (NIAID, 2016)
The whole screen tested about 17,000 reagents; below is a part drawn at random. Over the whole deposit, 762 (4.5%) were called active. 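Active calls include both raised and lowered p65 entry, mostly lowered; wells with fewer than 50 cells lack a z-score.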 Raw values are not corrected between plates. Reagent sequences are not shown.

Purpose: 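Regulators linking TLR4 signalling to p65 nuclear translocation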 (primary screen)
System: mouse RAW264.7 G9 macrophage reporter cells (GFP-p65, Tnf promoter-mCherry)
Knock-down reagent: siRNA pool against mouse genes, 100 nM
Duration: 2 days siRNA transfection, then 40 min LPS before fixation
Challenge: LPS (Salmonella minnesota R595) at 10 ng/ml
Detection: 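Microscopy ratio of nuclear to perinuclear-ring GFP-p65 signal, scaled to the plate median; gene score is the average of two replicate robust z-scores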
Reading the numbers: p65 translocation robust z-score: higher = more nuclear NF-kappaB p65 after LPS than the plate median; nuclear/cytoplasmic p65 ratio: higher = more nuclear NF-kappaB p65
Hit rule: 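Called active when z exceeds 3.3 or falls under -1.56 (median of Tlr4 controls), giving activity score of at least 50; no calls for control wells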
Meaning of the calls: active = hit (p65 shift raised or lowered); inactive = no clear change

gene	p65 translocation robust z-score	nuclear/cytoplasmic p65 ratio, rep 1	nuclear/cytoplasmic p65 ratio, rep 2	low cell count flag	Call
Slco1a4 (GeneID 28250)	-0.48	1.39	1.52	enough cells to score	inactive
Med16 (GeneID 216154)	0.75	1.46	1.23	enough cells to score	inactive
Slc44a1 (GeneID 100434)		1.4	1.51	fewer than 50 cells per well; well left out of scoring	inactive
Vmn1r235 (GeneID 171233)	-0.25	1.42	1.14	enough cells to score	inactive
B4galnt3 (GeneID 330406)	-0.2	1.55	1.68	enough cells to score	inactive
Cox10 (GeneID 70383)	1.21	1.66	1.52	enough cells to score	inactive
Ythdf2 (GeneID 213541)		1.21	1.07	fewer than 50 cells per well; well left out of scoring	inactive
Supt4a (GeneID 20922)	-0.9	1.31	1.54	enough cells to score	inactive
1700010I14Rik (GeneID 66931)	-0.49	1.27	1.42	enough cells to score	inactive
Tbkbp1 (GeneID 73174)		1.26	1.63	fewer than 50 cells per well; well left out of scoring	inactive
Acvr2a (GeneID 11480)	-0.48	1.62	1.32	enough cells to score	inactive
Cnn2 (GeneID 12798)	0.44	1.61	1.9	enough cells to score	inactive
Elf3 (GeneID 13710)	-1.53	1.24	1.19	enough cells to score	inactive
Dnajb5 (GeneID 56323)	-0.29	1.45	1.31	enough cells to score	inactive
Prickle3 (GeneID 54630)	-2.28	1.35	1.22	enough cells to score	active
Ncoa4 (GeneID 27057)	-0.86	1.32	1.27	enough cells to score	inactive
Krit1 (GeneID 79264)	-0.48	1.34	1.38	enough cells to score	inactive
Rnf44 (GeneID 105239)	-1.36	1.22	1.08	enough cells to score	inactive
Cacnb1 (GeneID 12295)	0.84	1.7	1.94	enough cells to score	inactive
Or2a20 (GeneID 258366)	1.31	1.68	1.37	enough cells to score	inactive
Or4b1 (GeneID 258987)	1.52	1.9	1.57	enough cells to score	inactive
Ctbp1 (GeneID 13016)	-1.09	1.39	1.19	enough cells to score	inactive
Col23a1 (GeneID 237759)	0.79	1.69	1.91	enough cells to score	inactive
Marveld3 (GeneID 73608)	0.83	1.92	1.71	enough cells to score	inactive
Zbtb22 (GeneID 81630)	0.53	1.29	1.31	enough cells to score	inactive
Arhgef26 (GeneID 622434)		1.57	1.5	fewer than 50 cells per well; well left out of scoring	inactive
Rpl13a (GeneID 22121)	-1.09	1.37	1.29	enough cells to score	inactive
Tbc1d22a (GeneID 223754)	0.61	1.66	1.89	enough cells to score	inactive
Syf2 (GeneID 68592)	2.53	1.68	2.07	enough cells to score	inactive
Chchd2 (GeneID 14004)	-1.48	1.4	1.51	enough cells to score	inactive
Zbtb7a (GeneID 16969)	0.07	1.6	1.44	enough cells to score	inactive
Acad11 (GeneID 102632)	1.27	1.53	1.63	enough cells to score	inactive
Apobec3 (GeneID 80287)	-0.27	1.58	1.58	enough cells to score	inactive
Gapvd1 (GeneID 66691)		1.27	1.37	fewer than 50 cells per well; well left out of scoring	inactive
Ncr1 (GeneID 17086)	1.33	1.64	1.49	enough cells to score	inactive
Hint1 (GeneID 15254)	1.37	1.58	1.58	enough cells to score	inactive
Xrcc4 (GeneID 108138)	-0.16	1.49	1.48	enough cells to score	inactive
Zc2hc1a (GeneID 67306)		1.27	1.38	fewer than 50 cells per well; well left out of scoring	inactive
Efnb1 (GeneID 13641)	-1.18	1.31	1.21	enough cells to score	inactive
Sox7 (GeneID 20680)	-0.25	1.39	1.2	enough cells to score	inactive
Tmem150cos (GeneID 76003)	-0.76	1.22	1.41	enough cells to score	inactive
Hyal2 (GeneID 15587)	-1.26	1.43	1.21	enough cells to score	inactive
Cd300a (GeneID 217303)	-0.12	1.63	1.45	enough cells to score	inactive
Ripk1 (GeneID 19766)	-0.36	1.71	1.27	enough cells to score	inactive
Lypd1 (GeneID 72585)	0	1.4	1.73	enough cells to score	inactive
Acot9 (GeneID 56360)	0.54	1.66	1.8	enough cells to score	inactive
Or8j3b (GeneID 404325)	0.06	1.68	1.58	enough cells to score	inactive
Gata3 (GeneID 14462)	0.15	1.47	1.37	enough cells to score	inactive
Hoxa5 (GeneID 15402)	0.65	1.72	1.66	enough cells to score	inactive
Naa20 (GeneID 67877)	0.79	2	1.63	enough cells to score	inactive
Vmn1r45 (GeneID 22297)	-0.73	1.24	1.19	enough cells to score	inactive
B4galt5 (GeneID 56336)	0.68	1.69	1.95	enough cells to score	inactive
Cldn19 (GeneID 242653)	-1.41	1.28	1.66	enough cells to score	inactive
Or10h28 (GeneID 258939)	0.85	1.56	1.32	enough cells to score	inactive
Or5p54 (GeneID 258488)		1.48	1.34	fewer than 50 cells per well; well left out of scoring	inactive
Vapa (GeneID 30960)	-0.14	1.46	1.21	enough cells to score	inactive
Nfkbiz (GeneID 80859)	1.02	1.49	1.69	enough cells to score	inactive
Irx1 (GeneID 16371)	1.32	1.71	1.63	enough cells to score	inactive
Emilin2 (GeneID 246707)	-0.53	1.33	1.3	enough cells to score	inactive

Records listed so far called active, once more:
gene	p65 translocation robust z-score	nuclear/cytoplasmic p65 ratio, rep 1	nuclear/cytoplasmic p65 ratio, rep 2	low cell count flag	Call
Prickle3 (GeneID 54630)	-2.28	1.35	1.22	enough cells to score	active
